Measurements published in publication PMC4761948.
These are yes or no findings as the source states them, for the method shown. Binding seen in cells or lysates may run through a third protein. Binding calls can cover weak binding; strength is not graded here. Sequences can lack the tags named with a protein.

By UniProt entry, the sequences of proteins in these tests, tags left out. Where a name states a change or a piece, a line headed by the entry shows the natural chain unless it says otherwise.
UniProt P23771: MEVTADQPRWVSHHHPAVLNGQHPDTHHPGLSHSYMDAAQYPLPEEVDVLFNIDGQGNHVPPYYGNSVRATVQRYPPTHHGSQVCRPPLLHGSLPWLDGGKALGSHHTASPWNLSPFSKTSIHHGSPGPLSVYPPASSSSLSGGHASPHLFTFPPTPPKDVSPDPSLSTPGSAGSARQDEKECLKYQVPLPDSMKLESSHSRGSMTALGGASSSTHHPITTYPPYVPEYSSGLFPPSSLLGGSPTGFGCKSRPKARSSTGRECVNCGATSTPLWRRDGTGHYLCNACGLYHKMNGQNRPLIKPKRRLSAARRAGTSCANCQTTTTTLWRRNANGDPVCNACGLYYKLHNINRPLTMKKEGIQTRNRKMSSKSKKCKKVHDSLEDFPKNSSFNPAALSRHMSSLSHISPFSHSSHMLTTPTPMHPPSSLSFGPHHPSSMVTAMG

Target: T1, HA-GCM1 (human) (UniProt Q9NP62)
T1 sequence: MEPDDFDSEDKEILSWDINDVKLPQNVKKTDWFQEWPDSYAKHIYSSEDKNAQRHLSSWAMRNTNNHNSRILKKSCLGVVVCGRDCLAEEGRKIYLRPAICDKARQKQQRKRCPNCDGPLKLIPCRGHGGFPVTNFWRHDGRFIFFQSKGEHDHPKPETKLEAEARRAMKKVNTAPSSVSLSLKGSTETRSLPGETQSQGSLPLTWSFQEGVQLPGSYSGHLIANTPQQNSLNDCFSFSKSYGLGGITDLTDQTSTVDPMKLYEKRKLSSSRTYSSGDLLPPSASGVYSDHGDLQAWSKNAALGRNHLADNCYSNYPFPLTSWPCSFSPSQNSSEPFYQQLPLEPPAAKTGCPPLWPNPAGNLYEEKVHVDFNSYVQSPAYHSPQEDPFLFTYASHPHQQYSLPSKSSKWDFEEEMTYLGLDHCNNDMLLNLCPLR
Assay: co-IP; Supplementary Figure 2; transient expression of Gal4-GATA3ΔZF1-FLAG and HA-GCM1; the method is not named in the sentence and is taken from the paragraph's mapping by coimmunoprecipitation

## Gal4-GATA3ΔZF1-FLAG (from UniProt P23771)
  binding: binds
